Experimental data: PubChem BioAssay AID686943 (Drosophila RNAi Screening Center, 2013)

- Screen: 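Search across the genome for regulators of signalling from receptor tyrosine kinase to ERK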 (primary screen)
- System: Drosophila S2R+ haemocyte-like cells expressing YFP-tagged ERK (Rolled)
- Reagent: long dsRNA against Drosophila genes
- Treatment: insulin stimulation versus unstimulated cells; dose and duration not given
- Read-out: 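Antibody staining for doubly phosphorylated ERK divided by ERK-YFP signal, as plate z-scores, in insulin-treated and untreated cells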
- Direction: replicate 1, z-score of dpERK with insulin and replicate 2, z-score of dpERK with insulin: higher = more active ERK per ERK-YFP after insulin
In all, the deposit lists about 23,000 reagents; this is a random part of those with a known target gene and a result. 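Extra replicates exist only for a retested subset of genes; insulin dose and duration not given; both raised and lowered dpERK matter.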 A plus sign joins genes that one reagent is predicted to hit. Further read-outs or replicates are left out here. Not stated in the record: the amount of reagent, the time to read-out.

| gene knocked down | PubChem SID | replicate 1, z-score of dpERK with insulin | replicate 2, z-score of dpERK with insulin |
| --- | --- | --- | --- |
| GC | SID104188188 | 0.2 | -0.06 |
| CG6678 | SID104195884 | -1.04 | -0.7 |
| Ir56d | SID104186382 | 0.96 | 0 |
| kl-5 (retired record) | SID104200499 | -0.25 | -0.01 |
| kl-5 (retired record) | SID104200528 | 0.34 | 0.39 |
| kl-5 (retired record) | SID104200565 | -0.85 | 0.7 |
| kl-5 (retired record) | SID104200953 | -0.01 | 0.32 |
| CG11029 | SID104181911 | -0.17 | -0.21 |
| dany | SID104183933 | -0.53 | -0.08 |
| dpr6 | SID104188797 | -3.18 | -3.75 |
| dpr6 | SID104189954 | -0.26 | 0.27 |
| dpr6 | SID104189955 | 0.14 | 1.4 |
| CG10435 | SID104194038 | 0.03 | 0.8 |
| ste24b | SID104187107 | 0.77 | 0.21 |
| inaE | SID104199168 | 0.42 | 1.25 |
| inaE | SID104199169 | -0.99 | 0.31 |
| inaE | SID104199171 | 1.02 | 0.98 |
| inaE | SID104199518 | 0.9 | 1.84 |
| Pka-C3 | SID104189194 | -0.3 | 0.36 |
| Pka-C3 | SID104191046 | 0.89 | -0.04 |
| Adf1 | SID104184733 | 0.25 | 0.29 |
| Adf1 | SID104184755 | 2.41 | 2.82 |
| fok | SID104181895 | 1.04 | -0.37 |
| Pif1A + Pif1B | SID104193934 | 0.27 | 0.32 |
| Pif1A + Pif1B | SID104194172 | 0.89 | -0.03 |
| Pif1A + Pif1B | SID104194173 | 1.12 | -0.41 |
| AstA-R2 | SID104193963 | 0 | -0.19 |
| CG8778 | SID104187056 | 0.38 | -0.31 |
| CG10561 | SID104181860 | 0.05 | -0.35 |
| CG9130 + CG9133 | SID104188416 | 1.42 | 0.17 |
| CG9130 + CG9133 | SID104188417 | -0.37 | -0.38 |
| CG9130 + CG9133 | SID104201599 | -0.01 | -0.42 |
| Ravus | SID104194918 | -0.38 | 0.3 |
| ND-24 | SID104199752 | 0.27 | 0.45 |
| Ir7f | SID104197804 | 0.46 | 0 |
| Nin | SID104181799 | -0.83 | 0.14 |
| Pdha | SID104198205 | 0.55 | 0.82 |
| Lcp2 | SID104187248 | -0.22 | -0.39 |
| CG14096 | SID104189891 | 0.43 | -0.47 |
| Polr3E | SID104191672 | 1 | 0.66 |
| Pen | SID104183188 | 0.9 | -0.06 |
| CG17681 | SID104182424 | -0.5 | -0.32 |
| CG34001 | SID104188834 | -0.27 | 0.06 |
| Hydr2 | SID104180399 | -0.11 | -0.15 |
| TRAM | SID104197970 | -0.14 | 0.53 |
| TRAM | SID104198443 | -0.17 | -0.98 |
| Bcat | SID104199548 | -0.08 | 0.12 |
| CG13589 | SID104184017 | 0.71 | 0.87 |
| beat-IIIb | SID104182227 | -0.41 | 0.28 |
| CG4880 | SID104199715 | -0.28 | 0.53 |
| CG32181 | SID104202043 | 0.63 | 1.08 |
| ddbt | SID104187661 | 0.62 | -0.02 |
| CG12935 | SID104186040 | -0.13 | 0.67 |
| CG4210 | SID104195343 | 0.26 | -0.98 |
| CG1354 | SID104197694 | 0.79 | 0.52 |
| soti | SID104196224 | 0.46 | 0.3 |
| mrva | SID104190801 | 0.13 | 2.15 |
| mrva | SID104201489 | -0.25 | 0.42 |

Already shown: an excerpt of the list.
| gene knocked down | PubChem SID | replicate 1, z-score of dpERK with insulin | replicate 2, z-score of dpERK with insulin |
| --- | --- | --- | --- |
| CG8778 | SID104187056 | 0.38 | -0.31 |
| CG10561 | SID104181860 | 0.05 | -0.35 |
| CG9130 + CG9133 | SID104188416 | 1.42 | 0.17 |
| CG9130 + CG9133 | SID104188417 | -0.37 | -0.38 |
| CG9130 + CG9133 | SID104201599 | -0.01 | -0.42 |
| Ravus | SID104194918 | -0.38 | 0.3 |
